Laboratory results as given in paper PMC4721948.
Results are given in words; binding and its absence hold for the method and conditions named. In cells and extracts the contact can be indirect.

Biological target: T1, APPL1 (adaptor protein containing pleckstrin homology domain, phosphotyrosine binding domain and leucine zipper motif), wild type (UniProt Q9UKG1)
T1 sequence: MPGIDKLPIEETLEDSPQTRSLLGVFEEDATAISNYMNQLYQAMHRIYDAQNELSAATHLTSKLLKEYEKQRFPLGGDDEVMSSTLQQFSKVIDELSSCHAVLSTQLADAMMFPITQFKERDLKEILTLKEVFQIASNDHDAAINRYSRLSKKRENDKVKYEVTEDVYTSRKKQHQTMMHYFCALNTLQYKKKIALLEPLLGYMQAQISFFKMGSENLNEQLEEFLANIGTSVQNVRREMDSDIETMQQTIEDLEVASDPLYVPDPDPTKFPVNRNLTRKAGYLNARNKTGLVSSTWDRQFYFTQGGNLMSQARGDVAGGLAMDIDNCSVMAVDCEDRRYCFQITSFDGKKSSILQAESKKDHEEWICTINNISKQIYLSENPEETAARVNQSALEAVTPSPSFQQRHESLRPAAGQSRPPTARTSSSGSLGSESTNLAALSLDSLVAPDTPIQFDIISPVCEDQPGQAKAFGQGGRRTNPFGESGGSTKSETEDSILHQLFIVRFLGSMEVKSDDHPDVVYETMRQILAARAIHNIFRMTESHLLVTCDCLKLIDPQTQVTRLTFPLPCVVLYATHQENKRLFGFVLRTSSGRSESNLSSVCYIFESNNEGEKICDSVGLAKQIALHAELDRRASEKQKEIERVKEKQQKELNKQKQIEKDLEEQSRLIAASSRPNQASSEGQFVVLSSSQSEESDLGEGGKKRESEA
Assay: co-IP; lysates of transfected HEK293 cells overexpressing APP (APPwt, APPmv or APP_(AENATA)) and APPL1 (wt or ΔPTB); IP with antibodies against APPL1 or against APP (C1/6.1 or 6E10), immunoblot; 10% of total lysate as input

binding: no binding
Substance: wild-type human β-amyloid precursor protein, full-length (flAPP) (from UniProt P05067-4 18-695)
